# Experimental data from PubChem BioAssay AID1347423 (Functional Genomics Laboratory (NCATS/FGL), 2020).
# In all, about 52,000 sequences went through this assay and about 210 (0.4%) were called active.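 Rule for the calls: active = gene whose silencing raises cell survival under the drug, median off-target-corrected z-score across its silencing RNAs 2 or more; inactive = the rest.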 The list shows a part of the results.
# Assay: Resistance to Poly (ADP-Ribose) Polymerase inhibitor: Gene Identification via Genome-wide siRNA Screen
# Conditions: mouse BRCA2 R2336H ES cells, olaparib, CellTiter-Glo viability; stronger effect = higher value
# Method in brief: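 Genome-wide siRNA screen (3 siRNAs/gene, 20 nM) in mouse ES cells carrying hypomorphic BRCA2 R2336H; olaparib 500 nM added 48 h post-transfection, CellTiter-Glo viability 72 h later. Normalized to plate-median negative control; MAD z-scores, gene median, seed-adjusted.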
row,Sequence,z-score
1,CCAAUCCUGUGAGAGCAUGTT against Tectb,inactive: 0.888
2,GUGAUUGGGAACCUGUUUATT against Paqr6,inactive: 0.115
3,GGUUAGAGAUCUUUUGAAATT against St14,inactive: 0.921
4,GGUUAAAAGCCAUGUGUAATT against Pggt1b,inactive: -0.128
5,GGUGGAUGAGGACACUAUCTT against Hs6st1,inactive: -0.22
6,GGAGGUGAACAAUAUCUUCTT against Klf5,inactive: 1.19
7,GGAUGUUUGGACAUCAUUUTT against 2610002M06Rik,inactive: 1.82
8,GGAGACCUGUGACUCCUUATT against 4932415M13,inactive: 0.159
9,CCCGUCUUACUGCUCUUCUTT against Slc22a13,inactive: 1.55
10,GCUUCUCAAAUAAACAGCATT against Hexa,inactive: 1.01
11,GCCUGCUUAUAUAGGGUGUTT against 2400003B06Rik,inactive: -0.947
12,UACAACCCACCUUUUAAGUTT against Tusc1,inactive: -1.76
13,CCAGGUAAACAUUGCUACUTT against Mpdz,inactive: 0.981
14,UGGUUGUGAUCAACAGAAUTT against LOC380997,inactive: 0.284
15,GGUCAGGUAGGGAUAUACATT against 0610009O20Rik,inactive: -1.93
16,GGCCAUAACACAAAUGUAGTT against Prpf4,inactive: 0.403
17,GGUAUGUCGCCAUCUGCUUTT against Olfr1342,inactive: -0.852
18,GGCCUAGGGAAAGCUAUGGTT against Cml3,inactive: -0.2
19,CCCAAGUUUGUAAAAGAAUTT against 1110019C08Rik,inactive: 0.394
20,GCAGGGAUCUGGAUUUAAUTT against Arf5,inactive: 0.29
21,GCAGUCAUGCCCGAUCUUGTT against A830006N08Rik,inactive: -1.38
22,GGAACAAAAGGUGAUCGUGTT against Col25a1,inactive: 0.717

# Quoted at random: 3 entries already listed.
row,Sequence,z-score
2,GUGAUUGGGAACCUGUUUATT against Paqr6,inactive: 0.115
17,GGUAUGUCGCCAUCUGCUUTT against Olfr1342,inactive: -0.852
12,UACAACCCACCUUUUAAGUTT against Tusc1,inactive: -1.76

# Part of the list above, bar-delimited.
row | Sequence | z-score
11 | GCCUGCUUAUAUAGGGUGUTT against 2400003B06Rik | inactive: -0.947
12 | UACAACCCACCUUUUAAGUTT against Tusc1 | inactive: -1.76

# Further entries follow.

row,Sequence,z-score
1,CGUCUGCCACCUAUUUGAGTT against Olfr122,inactive: -0.715
2,GGGAGCUAUGGAUUUGCUGTT against Tcea2,inactive: 0.614
3,GGCAGUAGUGUUAACGGUGTT against Chrnb2,active: 2.38
4,GCCAUCCUGAUAUCAGGCATT against Tas2r138,inactive: 0.496
5,GGACAUUCGUGGUUCCAUCTT against 4833412N02Rik,inactive: 0.546
6,GGAGAAACAUCAAUUGCACTT against Thbs2,inactive: 0.387
7,GGAAAUGACGAGAAGAAAGTT against Mapt,inactive: -1.01
8,GGCAGCAACUUGAUAAUAATT against 0610011I04Rik,inactive: -1.68
9,GCAUUUAAUGCCAAACCUGTT against Kirrel1,inactive: 0.255
10,GGAUUGGCAACCUCCAUUUTT against Rbbp2,inactive: 2.67
11,GGAACACUAUCUCACCUUUTT against Psd2,inactive: 0.516
12,GCAUGAAUAUUCCUCGUGATT against LOC433501,inactive: 2.08
13,GCCAUGAAACUUCAUGCUGTT against Spink4,inactive: -0.497
14,CUUUCUUGCCGUAUUUUACTT against Olfr1287,inactive: 0.801
15,GGAGAAACAGAAAGGUCACTT against Tmepai,inactive: 0.695
16,GGAGCUGAAUGACCGCUUUTT against Vim,inactive: -0.25
17,GAUUAUCCAUUGCCCGAUGTT against Sprrl9,inactive: 1.7
18,GGACGACUGAGUCUUUGAATT against Il20,inactive: 0.163
19,GGCAGUCAAGGCUAUGGACTT against Taf15,inactive: 2.41
20,CGGCCUAACAGCCAGACUUTT against 1700013G24Rik,inactive: -0.67
21,GGCCAAUUCACCAACGGCATT against Jph2,inactive: 0.2
22,GGAAGAGGCCAGCUAUAACTT against B930007L02Rik,inactive: -2.57

row,Sequence,z-score
1,GGGACAUGAGCCAUUCAUCTT against Mlr2,inactive: -0.963
2,GGAACAAGCCCAAGAAGAATT against Mad,inactive: -1.37
3,GGUGGCAGUCACCAUUCUUTT against Il17rd,inactive: -1.64
4,GGAUCUUCUGGAUAGAAUGTT against Prc1,inactive: 0.0886
5,GGAAGACUUCACUAAGAUCTT against Dpysl5,inactive: 0.327
6,GGGUUUCUAUAUAUUUAGGTT against Cdca7,inactive: -0.664
7,GCCCGAAAAAAACGUAGGATT against Map3k14,inactive: -0.326
8,GGAAAGCUUGAAAAUGUUCTT against 4932438A13Rik,inactive: -0.231
9,GGCUCUGUGAUGGUCUUACTT against Olfr446,inactive: -2.42
10,CCAGCUAAAAAGAUGGUAGTT against 1110037N09Rik,inactive: 0.728
11,GCAGUACCCUUACAAUAAUTT against Ndufb8,inactive: -0.36
12,CCUGUAAGAUGUUUCGGCCTT against Zdhhc18,inactive: 0.825
13,GGAUCACAAGCUGGUGUUCTT against 5033413H12Rik,inactive: 0.606
14,CCCGUGGUCCUACAUUGUUTT against Cdon,inactive: 0.357
15,GGAUGUAAAGAUUAGCGUGTT against Dgcr8,inactive: -0.0062
16,CCAUCCAGUAAGGUUAUUCTT against Npy5r,inactive: 0.651
17,GGAAUUAUCUUCAUCCCUGTT against D230019K24Rik,inactive: 0.492
18,GGAGGAGGAGACCAUCAUGTT against Neud4,inactive: -0.279
19,CGUUGUGCAAUUUAUACUATT against Zfp84,inactive: 0.063
20,GGGAUUACUUGUAUCGGGATT against 1700006D24Rik,inactive: 0.302
21,GGCCAAAGGGCAAAGUGAUTT against D3Bwg0562e,inactive: 0.678
22,GGAGCAACUACAAACAUCUTT against Acas2,inactive: 0.504
